No constants are given. Whether binding was seen depends on the method and setting. In cells and extracts the contact can be indirect. Some results given as binding are weak or reduced against the parent protein; the word gives no strength. Tags and fused reporters may be left off the sequences shown.
How the values were obtained:
[1] = target: T1, CV-nYFP (Arabidopsis thaliana) (UniProt Q8S8K8); assay: split reporter
T1 sequence: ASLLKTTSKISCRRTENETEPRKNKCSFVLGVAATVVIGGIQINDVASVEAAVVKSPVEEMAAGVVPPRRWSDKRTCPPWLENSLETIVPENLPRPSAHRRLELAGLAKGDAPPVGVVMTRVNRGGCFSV

By UniProt entry, the sequences of proteins in these tests, tags left out.
UniProt Q0WLB5: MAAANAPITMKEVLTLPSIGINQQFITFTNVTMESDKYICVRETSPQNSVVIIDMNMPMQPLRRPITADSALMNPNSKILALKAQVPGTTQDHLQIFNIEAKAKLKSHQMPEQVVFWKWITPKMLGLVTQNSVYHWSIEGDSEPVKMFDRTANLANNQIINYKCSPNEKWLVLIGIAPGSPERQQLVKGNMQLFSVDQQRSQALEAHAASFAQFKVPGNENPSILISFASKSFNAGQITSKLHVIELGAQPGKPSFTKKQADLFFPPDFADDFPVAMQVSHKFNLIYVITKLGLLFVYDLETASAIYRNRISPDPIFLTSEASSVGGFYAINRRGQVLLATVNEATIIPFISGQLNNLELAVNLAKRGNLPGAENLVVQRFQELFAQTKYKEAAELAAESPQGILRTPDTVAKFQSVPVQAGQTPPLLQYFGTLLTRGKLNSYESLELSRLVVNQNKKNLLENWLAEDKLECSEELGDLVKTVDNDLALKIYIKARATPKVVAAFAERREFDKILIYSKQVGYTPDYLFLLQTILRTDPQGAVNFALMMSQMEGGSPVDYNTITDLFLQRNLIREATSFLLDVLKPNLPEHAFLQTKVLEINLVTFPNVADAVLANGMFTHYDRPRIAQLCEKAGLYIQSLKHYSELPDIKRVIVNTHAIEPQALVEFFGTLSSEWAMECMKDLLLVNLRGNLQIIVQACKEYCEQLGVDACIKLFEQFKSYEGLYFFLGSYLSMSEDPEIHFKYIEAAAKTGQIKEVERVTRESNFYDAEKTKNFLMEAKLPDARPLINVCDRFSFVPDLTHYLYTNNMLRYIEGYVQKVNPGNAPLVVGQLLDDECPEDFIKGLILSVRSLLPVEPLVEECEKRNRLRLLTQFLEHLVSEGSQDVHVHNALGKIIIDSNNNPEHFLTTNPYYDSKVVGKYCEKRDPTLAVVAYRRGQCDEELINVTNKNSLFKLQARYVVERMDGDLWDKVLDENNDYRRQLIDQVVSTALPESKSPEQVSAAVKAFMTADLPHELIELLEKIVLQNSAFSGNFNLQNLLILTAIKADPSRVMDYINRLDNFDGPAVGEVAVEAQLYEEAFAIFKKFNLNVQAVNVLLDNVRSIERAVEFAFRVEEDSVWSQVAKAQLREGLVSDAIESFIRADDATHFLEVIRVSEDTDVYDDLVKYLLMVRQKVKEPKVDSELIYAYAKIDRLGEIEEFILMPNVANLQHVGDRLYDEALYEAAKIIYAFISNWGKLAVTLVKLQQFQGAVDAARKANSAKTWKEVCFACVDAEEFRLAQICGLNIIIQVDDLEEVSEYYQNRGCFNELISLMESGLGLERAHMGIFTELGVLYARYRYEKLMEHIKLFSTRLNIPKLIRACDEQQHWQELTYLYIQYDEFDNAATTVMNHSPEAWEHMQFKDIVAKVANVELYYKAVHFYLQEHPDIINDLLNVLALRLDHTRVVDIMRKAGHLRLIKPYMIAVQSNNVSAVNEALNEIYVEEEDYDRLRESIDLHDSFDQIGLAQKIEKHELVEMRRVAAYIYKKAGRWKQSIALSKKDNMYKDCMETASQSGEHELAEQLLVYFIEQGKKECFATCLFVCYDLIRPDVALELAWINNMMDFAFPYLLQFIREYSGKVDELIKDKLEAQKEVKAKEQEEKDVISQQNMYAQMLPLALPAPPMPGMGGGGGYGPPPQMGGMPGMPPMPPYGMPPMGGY
UniProt Q0WNJ6: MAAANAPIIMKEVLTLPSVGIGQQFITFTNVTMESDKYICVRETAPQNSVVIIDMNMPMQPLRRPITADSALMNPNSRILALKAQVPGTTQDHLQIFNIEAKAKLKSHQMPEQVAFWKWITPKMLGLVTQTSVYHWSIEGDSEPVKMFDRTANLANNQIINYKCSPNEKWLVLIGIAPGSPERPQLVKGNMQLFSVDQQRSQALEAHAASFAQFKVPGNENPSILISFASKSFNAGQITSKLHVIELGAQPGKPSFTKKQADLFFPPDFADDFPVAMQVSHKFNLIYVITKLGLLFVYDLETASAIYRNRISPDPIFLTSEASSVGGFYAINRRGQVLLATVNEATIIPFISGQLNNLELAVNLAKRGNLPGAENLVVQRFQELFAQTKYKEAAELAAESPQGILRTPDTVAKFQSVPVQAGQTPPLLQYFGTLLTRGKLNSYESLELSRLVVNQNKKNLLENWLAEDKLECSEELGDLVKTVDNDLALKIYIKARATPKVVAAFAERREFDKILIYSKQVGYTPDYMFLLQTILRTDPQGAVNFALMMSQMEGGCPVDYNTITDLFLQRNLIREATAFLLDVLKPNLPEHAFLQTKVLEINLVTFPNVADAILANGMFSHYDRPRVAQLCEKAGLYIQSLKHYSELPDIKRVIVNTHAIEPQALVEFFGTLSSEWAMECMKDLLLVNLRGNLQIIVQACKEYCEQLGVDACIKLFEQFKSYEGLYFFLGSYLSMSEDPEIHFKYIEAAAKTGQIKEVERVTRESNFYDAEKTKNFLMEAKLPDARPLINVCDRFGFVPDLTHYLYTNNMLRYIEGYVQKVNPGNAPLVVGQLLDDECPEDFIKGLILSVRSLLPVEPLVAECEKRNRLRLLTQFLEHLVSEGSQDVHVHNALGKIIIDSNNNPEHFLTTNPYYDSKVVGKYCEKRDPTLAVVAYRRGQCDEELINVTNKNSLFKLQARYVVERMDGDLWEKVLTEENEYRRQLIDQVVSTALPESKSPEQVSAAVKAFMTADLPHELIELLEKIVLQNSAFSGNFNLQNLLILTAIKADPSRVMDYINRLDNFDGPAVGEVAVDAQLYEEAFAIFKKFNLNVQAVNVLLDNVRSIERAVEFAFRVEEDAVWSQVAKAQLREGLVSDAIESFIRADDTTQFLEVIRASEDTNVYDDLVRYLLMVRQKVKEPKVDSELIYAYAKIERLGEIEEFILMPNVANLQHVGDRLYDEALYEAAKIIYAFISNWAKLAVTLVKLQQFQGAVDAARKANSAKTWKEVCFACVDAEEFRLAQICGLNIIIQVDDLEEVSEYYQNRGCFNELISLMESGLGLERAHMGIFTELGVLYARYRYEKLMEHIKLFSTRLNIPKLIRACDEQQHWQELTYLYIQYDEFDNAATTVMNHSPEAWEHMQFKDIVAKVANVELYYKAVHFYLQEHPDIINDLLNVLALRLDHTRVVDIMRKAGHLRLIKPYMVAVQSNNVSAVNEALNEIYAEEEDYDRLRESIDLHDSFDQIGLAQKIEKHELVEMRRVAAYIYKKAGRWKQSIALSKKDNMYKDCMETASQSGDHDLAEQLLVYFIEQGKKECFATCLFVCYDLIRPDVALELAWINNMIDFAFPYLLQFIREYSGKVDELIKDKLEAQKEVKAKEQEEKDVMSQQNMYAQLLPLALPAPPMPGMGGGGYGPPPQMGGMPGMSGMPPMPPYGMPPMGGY
UniProt P25858: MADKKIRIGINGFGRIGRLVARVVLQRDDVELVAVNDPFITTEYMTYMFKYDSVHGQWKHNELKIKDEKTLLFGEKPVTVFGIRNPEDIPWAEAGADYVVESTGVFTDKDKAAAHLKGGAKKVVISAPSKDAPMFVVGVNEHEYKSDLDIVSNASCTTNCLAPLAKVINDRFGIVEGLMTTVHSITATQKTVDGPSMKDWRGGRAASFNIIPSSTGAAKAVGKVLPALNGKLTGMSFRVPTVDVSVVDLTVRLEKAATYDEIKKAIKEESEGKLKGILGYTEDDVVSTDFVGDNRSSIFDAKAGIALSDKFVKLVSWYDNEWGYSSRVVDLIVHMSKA

[2] = target: T2, nYFP-CV (Arabidopsis thaliana) (UniProt Q8S8K8); assay: split reporter
T2 sequence: T1 sequence

[3] = target: T3, CV-HA (transiently expressed in tobacco leaves) (Arabidopsis thaliana) (UniProt Q8S8K8); assay: co-IP
T3 sequence: T1 sequence

Substance	binding [1]	binding [2]	binding [3]
cYFP-CHC2 (from UniProt Q0WLB5 1-1703)	binds	binds	
cYFP-CHC1 (from UniProt Q0WNJ6 1-1705)	binds		
GAPC1-FLAG (GAPC1-6×FLAG, transiently expressed in tobacco leaves) (from UniProt P25858 1-338) (enzyme)			binds
cYFP-GAPC1 (from UniProt P25858 1-338) (enzyme)	binds		

Reference: doi:10.1101/2021.12.02.470903
